Assay results: article PMC12445080
The exact form of at least one protein or probe is not confirmed. A negative result means that nothing was seen under these conditions. Where a protein sequence is shown, tags need not be part of it.

Target: T1, NolR-His (UniProt P28267)
T1 sequence (looked up, limits assumed): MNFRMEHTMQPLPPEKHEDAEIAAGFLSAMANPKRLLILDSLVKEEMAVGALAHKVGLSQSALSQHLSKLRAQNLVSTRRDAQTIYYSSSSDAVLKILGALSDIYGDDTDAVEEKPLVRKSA
Assay: EMSA
Conditions: 5 mM Mg2+, 200 ug/mL salmon sperm DNA, 10 mM Tris-HCl pH 8.0, 1 mM EDTA, 50 mM KCl, 5 mM MgCl2, 1 mM DTT, 5% glycerol, 10 ug/mL BSA, 200 ug/mL sonicated salmon sperm DNA, 2-4 nM probe, recombinant protein, protein details: C-terminal 6xHis (GGGHHHHHH)

Sequence: GCAATGCTGCAATAATGTCGCCGCTCTTCATCTGATACGACAATACACACGCATGTGTATTCGTCCAATGAATTTGTCAAGCCAATCTAAGGCGGCTTTCTCGGATGGTCTCGAACCGTCGGATCATCAGCTTGTGCTAAAAAAGCCAATATTCATCTCTAACGACCGCCTGGCTGGGACTTCGAAGCGAGTTCGGACGGAGAGTTCATG (double strand) [lpsS upstream (210 bp)]
- binding result (high protein:probe ratio required, second shift at higher ratios): binds

Sequence: GGGAACGAGTAACCGACATTGGCCGCCATCGATGCGGTGCTTGCCCGATGGGAGGCGGCGATTGAGGACGCAAAGGCGCCGGGCCGCACGCGAGAAGGATCCGCGATAGTGCCGTGGCGGTCTGGATCGCATCGAGGAGTCGAGGTACTCCAGCGTCCCGCCAGAATACCAATTGGTTTGCGCGTGGTCAGTTTTCGCTGGAACTATACTTTACGCCACCACTTGAAAACGAGCGTCGACTCCCATACCCATCCCTTAGATTGTAGTCGGGGGATACATAGTG (double strand) [hna upstream (283 bp)]
- binding result (protein amount equivalent to nodD1 probe): no binding

Sequence: TCAAAGCACGATCGAGAGTGGTGTGTACCCGGCAAGTTACACCGGGGACGCCAACCGTAGCGCTGGACCGTTGGTCGAGCGCTTAGATGACGGCTCTAAATTCGGACCCATCCTGTACTTGTGAAACTTTTCTCGCGCCGCACCTTGATTCCATTAACTTCAGGGTTCTCTAATAGGACTCTGCAAGATTGGTAAAATTGATTGTTTGGATAACGATCATCTGCGATATGGATGCCGCACA (double strand) [nodD1 upstream (241 bp)]
- binding result (high protein:probe ratio required): binds
